Results are given in words; binding and its absence hold for the method and conditions named. For some assays here: Binding seen in cells or lysates may run through a third protein. Some binding calls cover weakened binding; strength is not graded here. For some assays here: Where a sequence is shown, tags or fusion partners need not be part of it.

Amino acid sequences for entries named in this document (tags omitted).
UniProt P67809: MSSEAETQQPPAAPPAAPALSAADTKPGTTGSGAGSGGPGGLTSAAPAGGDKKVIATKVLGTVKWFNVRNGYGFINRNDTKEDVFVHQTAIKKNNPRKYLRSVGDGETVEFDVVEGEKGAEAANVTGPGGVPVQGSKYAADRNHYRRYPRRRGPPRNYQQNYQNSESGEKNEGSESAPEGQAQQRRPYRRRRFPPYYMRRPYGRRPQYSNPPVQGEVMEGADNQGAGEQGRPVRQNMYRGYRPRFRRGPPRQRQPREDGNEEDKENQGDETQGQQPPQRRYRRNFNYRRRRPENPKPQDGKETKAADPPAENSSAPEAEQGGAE

For one assay, the target named is T1, GST-CILP1 fusion protein (UniProt O75339).
T1 sequence: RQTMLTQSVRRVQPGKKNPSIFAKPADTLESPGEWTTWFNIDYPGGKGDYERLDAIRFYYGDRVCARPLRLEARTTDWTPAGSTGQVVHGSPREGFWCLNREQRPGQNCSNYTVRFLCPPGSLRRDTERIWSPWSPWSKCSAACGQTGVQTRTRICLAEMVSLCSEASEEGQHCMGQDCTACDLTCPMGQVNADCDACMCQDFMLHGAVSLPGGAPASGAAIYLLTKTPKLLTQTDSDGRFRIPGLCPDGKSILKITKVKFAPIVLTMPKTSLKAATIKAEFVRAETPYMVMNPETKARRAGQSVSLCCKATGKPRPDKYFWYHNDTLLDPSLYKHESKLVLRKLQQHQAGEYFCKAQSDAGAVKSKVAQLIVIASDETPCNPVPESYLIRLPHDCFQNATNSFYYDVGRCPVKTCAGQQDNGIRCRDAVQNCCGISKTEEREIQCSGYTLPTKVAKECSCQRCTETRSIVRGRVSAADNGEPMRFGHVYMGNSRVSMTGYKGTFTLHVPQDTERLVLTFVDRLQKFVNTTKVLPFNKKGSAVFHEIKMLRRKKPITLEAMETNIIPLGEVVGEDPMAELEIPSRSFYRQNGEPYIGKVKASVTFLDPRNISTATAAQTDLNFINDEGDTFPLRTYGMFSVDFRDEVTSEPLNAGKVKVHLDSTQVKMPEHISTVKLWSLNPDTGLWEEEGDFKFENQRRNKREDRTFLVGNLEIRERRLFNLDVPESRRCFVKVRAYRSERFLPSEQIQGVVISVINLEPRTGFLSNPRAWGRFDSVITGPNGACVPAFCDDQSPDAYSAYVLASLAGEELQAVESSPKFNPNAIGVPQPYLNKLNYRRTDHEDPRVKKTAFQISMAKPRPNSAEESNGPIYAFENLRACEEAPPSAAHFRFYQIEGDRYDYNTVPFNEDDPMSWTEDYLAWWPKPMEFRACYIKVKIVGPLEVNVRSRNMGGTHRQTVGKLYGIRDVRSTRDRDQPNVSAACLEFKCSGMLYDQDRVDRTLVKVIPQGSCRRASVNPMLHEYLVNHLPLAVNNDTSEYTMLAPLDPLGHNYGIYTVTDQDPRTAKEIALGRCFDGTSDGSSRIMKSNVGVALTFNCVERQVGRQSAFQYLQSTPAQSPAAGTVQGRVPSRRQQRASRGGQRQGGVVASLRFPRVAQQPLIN
Nature of the assay: pull-down; purified GST-CILP1 (or GST) on glutathione agarose, purified His-YBX1 added for 3 h at 4 °C in 20 mM Tris, 100 mM NaCl, 1 mM EDTA, 1 mM DTT; four washes, Western blot; both purified.

The target in assay [1] is T2, Cartilage Intermediate Layer Protein 1 (CILP1) (human (endogenous in HSFs)) (UniProt O75339).
T2 sequence: T1 sequence
The assay is described as follows: co-IP; whole-cell lysates of HSFs in IP lysis buffer, 5 ug IP antibody overnight at 4 °C, protein A/G agarose beads for 4 h, five washes, Western blot.

“His-YBX1 fusion protein (from UniProt P67809 1-324)”: the binding entry with GST-CILP1 fusion protein is “binds”.
Take “Y-box-binding protein 1 (YBX1) (from UniProt P67809 1-324)”: the binding entry in assay [1] is listed as “binds”.
